Source: article PMC3938566
Results are given in words; binding and its absence hold for the method and conditions named. Binding seen in cells or lysates may run through a third protein. Some binding calls cover weakened binding; strength is not graded here.

By UniProt entry, the sequences of proteins in these tests, tags left out.
UniProt P29350: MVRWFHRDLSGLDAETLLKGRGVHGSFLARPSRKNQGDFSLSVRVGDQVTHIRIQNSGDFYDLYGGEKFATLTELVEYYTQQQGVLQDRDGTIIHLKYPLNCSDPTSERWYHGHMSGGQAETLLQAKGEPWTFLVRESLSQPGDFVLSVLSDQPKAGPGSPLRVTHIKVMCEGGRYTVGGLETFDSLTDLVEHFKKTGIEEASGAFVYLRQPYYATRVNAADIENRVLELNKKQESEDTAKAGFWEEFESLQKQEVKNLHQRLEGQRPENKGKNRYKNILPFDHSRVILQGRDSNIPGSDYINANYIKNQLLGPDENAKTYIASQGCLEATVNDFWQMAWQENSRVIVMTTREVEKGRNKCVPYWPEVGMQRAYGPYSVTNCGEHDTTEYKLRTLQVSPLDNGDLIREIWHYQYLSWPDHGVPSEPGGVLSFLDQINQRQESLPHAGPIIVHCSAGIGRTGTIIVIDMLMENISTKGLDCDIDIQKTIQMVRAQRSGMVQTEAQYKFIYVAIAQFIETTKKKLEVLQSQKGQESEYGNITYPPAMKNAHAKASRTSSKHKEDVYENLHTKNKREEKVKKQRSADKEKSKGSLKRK
UniProt Q12809: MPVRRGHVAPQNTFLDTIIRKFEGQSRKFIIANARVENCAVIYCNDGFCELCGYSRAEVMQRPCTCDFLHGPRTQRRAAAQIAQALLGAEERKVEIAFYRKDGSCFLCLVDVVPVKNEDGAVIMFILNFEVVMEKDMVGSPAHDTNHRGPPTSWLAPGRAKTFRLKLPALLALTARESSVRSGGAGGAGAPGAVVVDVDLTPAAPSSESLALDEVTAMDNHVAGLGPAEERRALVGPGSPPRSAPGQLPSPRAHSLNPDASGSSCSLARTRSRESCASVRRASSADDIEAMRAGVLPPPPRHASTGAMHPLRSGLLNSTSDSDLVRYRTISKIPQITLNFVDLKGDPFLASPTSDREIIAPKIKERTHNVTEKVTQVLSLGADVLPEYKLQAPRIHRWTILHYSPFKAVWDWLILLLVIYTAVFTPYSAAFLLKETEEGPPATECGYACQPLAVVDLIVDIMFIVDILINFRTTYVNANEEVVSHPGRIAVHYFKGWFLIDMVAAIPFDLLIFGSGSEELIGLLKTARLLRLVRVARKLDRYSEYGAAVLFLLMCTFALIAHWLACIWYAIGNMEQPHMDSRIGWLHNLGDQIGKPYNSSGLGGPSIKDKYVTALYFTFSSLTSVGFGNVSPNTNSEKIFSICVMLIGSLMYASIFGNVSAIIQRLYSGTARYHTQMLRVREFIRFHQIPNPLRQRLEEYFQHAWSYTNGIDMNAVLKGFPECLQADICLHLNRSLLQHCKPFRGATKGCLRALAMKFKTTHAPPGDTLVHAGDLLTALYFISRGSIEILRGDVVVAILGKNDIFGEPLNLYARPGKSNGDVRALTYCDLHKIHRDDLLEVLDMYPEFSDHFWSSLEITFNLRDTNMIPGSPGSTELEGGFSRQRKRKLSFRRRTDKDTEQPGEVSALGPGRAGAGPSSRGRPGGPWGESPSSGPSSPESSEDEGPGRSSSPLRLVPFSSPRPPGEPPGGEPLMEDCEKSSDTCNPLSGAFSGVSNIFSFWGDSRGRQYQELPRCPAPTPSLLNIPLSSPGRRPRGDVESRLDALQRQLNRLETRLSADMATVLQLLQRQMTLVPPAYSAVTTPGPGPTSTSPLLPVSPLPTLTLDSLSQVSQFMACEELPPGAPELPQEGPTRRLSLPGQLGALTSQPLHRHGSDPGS

Molecular target: SHP-1 tyrosine phosphatase (immunoprecipitated from lysates of hERG-transfected HEK293 cells) (UniProt P29350)
Experiment: co-IP; lysates (250 µg) of HEK293 cells transfected with wt or ΔITIM hERG, pervanadate-treated (15 min, 37°C); immunoprecipitation with anti-SHP-1 (sc-287) and protein-G beads; blot with anti-hERG

myc-tagged hERG (wild-type, full-length hERG/Kv11.1/KCNH2 channel) (from UniProt Q12809 1-1159)
binding: binds
